PubChem BioAssay AID1259405 – NCATS – 2018

- Purpose: 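Silenced genes that increase secreted GFP made by CHO cells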 (primary screen)
- Cell system: Chinese hamster CHO-K1 ovary cells with stable secreted eGFP expression
- Reagents: single siRNA against mouse genes, 0.8 pmol siRNA per well (2 µl of 400 nM stock)
- Duration: 3 days
- Detection: 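Per-well intracellular GFP measured by laser scanning cytometry, plus viability from ATP luminescence, each relative to plate median of non-targeting control wells, in %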
- Scale: GFP, % of control: higher = more GFP per well, higher productivity; viability (ATP), % of control: higher = more viable cells (more ATP)
- Rule for the call: 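Called active when intracellular GFP, relative to negative control, is at or above 120%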
This is one part, drawn at random, of about 50,000 deposited reagents. About 4,000 of all reagents (8%) count as active. 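Mouse siRNA library applied to hamster cells; one well for each siRNA.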 Unmarked entries are inactive. No sequences are given here.

With Crx [SID363569469], what does the deposit list?
GFP, % of control: 82.9; viability (ATP), % of control: 89.1

Which result is listed for Crx [SID363577213]?
GFP, % of control: 95.7; viability (ATP), % of control: 74.9

What is on record for Crx [SID363578621]?
GFP, % of control: 38.2; viability (ATP), % of control: 43.8

With Slc25a35 [SID363570290], how do the results read?
GFP, % of control: 142 (active); viability (ATP), % of control: 136

What did the screen give for Slc25a35 [SID363576626]?
GFP, % of control: 58.9; viability (ATP), % of control: 52.2

With Slc25a35 [SID363579794], what was measured?
GFP, % of control: 108; viability (ATP), % of control: 89.9

For Mars2 [SID363584519], what does the deposit list?
GFP, % of control: 75.8; viability (ATP), % of control: 88.5

For Mars2 [SID363589549], what was measured?
GFP, % of control: 103; viability (ATP), % of control: 91.6

What did the screen give for Capn6 [SID363581624]?
GFP, % of control: 125 (active); viability (ATP), % of control: 103

What did the screen give for Capn6 [SID363589118]?
GFP, % of control: 110; viability (ATP), % of control: 86.9

For Rbm42 [SID363545960], how do the results read?
GFP, % of control: 96.8; viability (ATP), % of control: 62.5

With Rbm42 [SID363549473], what was measured?
GFP, % of control: 79.7; viability (ATP), % of control: 66.5

For Rbm42 [SID363563279], what was measured?
GFP, % of control: 57.5; viability (ATP), % of control: 72.8

What is on record for Gclm [SID363584536]?
GFP, % of control: 73.8; viability (ATP), % of control: 83.4

Which result is listed for Gclm [SID363589566]?
GFP, % of control: 122 (active); viability (ATP), % of control: 131

What did the screen give for Ddx3x [SID363569670]?
GFP, % of control: 44.8; viability (ATP), % of control: 58.1

Which result is listed for Ddx3x [SID363576710]?
GFP, % of control: 7.7; viability (ATP), % of control: 19.2

How did the screen score Ddx3x [SID363578118]?
GFP, % of control: 39.6; viability (ATP), % of control: 113

What is on record for Or8k24 [SID363554277]?
GFP, % of control: 66.9; viability (ATP), % of control: 72.2

For Or8k24 [SID363567724], what does the deposit list?
GFP, % of control: 103; viability (ATP), % of control: 78.9

With Or8k24 [SID363585081], what was measured?
GFP, % of control: 61.3; viability (ATP), % of control: 97.6

For Cenpc1 [SID363581833], what was measured?
GFP, % of control: 96.7; viability (ATP), % of control: 106

Which result is listed for Cenpc1 [SID363589327]?
GFP, % of control: 69; viability (ATP), % of control: 69

What did the screen give for Thra [SID363571148]?
GFP, % of control: 105; viability (ATP), % of control: 77.5

How did the screen score Thra [SID363571500]?
GFP, % of control: 66.5; viability (ATP), % of control: 74.5

With Thra [SID363571852], what does the deposit list?
GFP, % of control: 69.7; viability (ATP), % of control: 70.9

Records above whose gene name begins with O or o:
Or8k24 [SID363554277] | GFP, % of control = 66.9; viability (ATP), % of control = 72.2
Or8k24 [SID363567724] | GFP, % of control = 103; viability (ATP), % of control = 78.9
Or8k24 [SID363585081] | GFP, % of control = 61.3; viability (ATP), % of control = 97.6

The list goes on:
What is on record for Ldb2 [SID363547476]?
GFP, % of control: 142 (active); viability (ATP), % of control: 125

With Ldb2 [SID363558245], what was measured?
GFP, % of control: 38.8; viability (ATP), % of control: 39.7

For Ldb2 [SID363560003], what does the deposit list?
GFP, % of control: 96.6; viability (ATP), % of control: 99.1

What is on record for Syt13 [SID363582521]?
GFP, % of control: 108; viability (ATP), % of control: 125

With Syt13 [SID363584281], what does the deposit list?
GFP, % of control: 69.4; viability (ATP), % of control: 82.6

For Xpo4 [SID363545501], what was measured?
GFP, % of control: 45.5; viability (ATP), % of control: 71.7

For Xpo4 [SID363549014], what does the deposit list?
GFP, % of control: 73.1; viability (ATP), % of control: 76.4

With Xpo4 [SID363562820], how do the results read?
GFP, % of control: 56.4; viability (ATP), % of control: 47.1

For Adap1 [SID363570225], how do the results read?
GFP, % of control: 108; viability (ATP), % of control: 86.2

How did the screen score Adap1 [SID363576561]?
GFP, % of control: 190 (active); viability (ATP), % of control: 119

What is on record for Adap1 [SID363579729]?
GFP, % of control: 68.1; viability (ATP), % of control: 82.4

For Pcdhb21 [SID363573275], what does the deposit list?
GFP, % of control: 81.3; viability (ATP), % of control: 81.8

Which result is listed for Pcdhb21 [SID363588514]?
GFP, % of control: 0.0638; viability (ATP), % of control: 115

Which result is listed for Skic8 [SID363543911]?
GFP, % of control: 69.7; viability (ATP), % of control: 102

With Skic8 [SID363551647], how do the results read?
GFP, % of control: 88.9; viability (ATP), % of control: 95.7

For Skic8 [SID363559252], what does the deposit list?
GFP, % of control: 98.4; viability (ATP), % of control: 115

Which result is listed for Dmtf1 [SID363573368]?
GFP, % of control: 99.9; viability (ATP), % of control: 110

How did the screen score Dmtf1 [SID363588607]?
GFP, % of control: 69.3; viability (ATP), % of control: 71.1

What did the screen give for Tmem94 [SID363543461]?
GFP, % of control: 86.8; viability (ATP), % of control: 98.4

Which result is listed for Tmem94 [SID363552954]?
GFP, % of control: 108; viability (ATP), % of control: 83.5

With Tmem94 [SID363558802], what does the deposit list?
GFP, % of control: 35.2; viability (ATP), % of control: 36.4

How did the screen score Aktip [SID363541845]?
GFP, % of control: 82.4; viability (ATP), % of control: 86.3

With Aktip [SID363553437], how do the results read?
GFP, % of control: 85.2; viability (ATP), % of control: 94.9

For Aktip [SID363566761], what was measured?
GFP, % of control: 51.1; viability (ATP), % of control: 58.1

What did the screen give for Mkrn1 [SID363573622]?
GFP, % of control: 86.3; viability (ATP), % of control: 63.1

With Mkrn1 [SID363581366], how do the results read?
GFP, % of control: 69.6; viability (ATP), % of control: 66.6

With Mkrn1 [SID363583830], what does the deposit list?
GFP, % of control: 73.1; viability (ATP), % of control: 89.8
